Data on one substance can be found in paper PMC6242693.

Results are given in words; binding and its absence hold for the method and conditions named. Binding seen in cells or lysates may run through a third protein. Binding can be weak; no strength is given. Where a sequence is shown, tags or fusion partners need not be part of it.

The target in the assay is T1, SpoIVFB (B) catalytic mutant E44Q fused to GFP (B. subtilis) (UniProt P26937).
T1 sequence: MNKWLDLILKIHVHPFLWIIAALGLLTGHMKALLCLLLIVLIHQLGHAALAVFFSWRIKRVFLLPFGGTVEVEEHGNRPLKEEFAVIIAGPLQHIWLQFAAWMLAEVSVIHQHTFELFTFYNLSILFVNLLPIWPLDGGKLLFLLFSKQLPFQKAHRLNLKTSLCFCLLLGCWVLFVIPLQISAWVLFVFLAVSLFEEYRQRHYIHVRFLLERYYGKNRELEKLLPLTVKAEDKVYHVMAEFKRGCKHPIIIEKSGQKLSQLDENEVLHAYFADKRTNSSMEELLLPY
Briefly: co-IP; B(E44Q)-GFP immunoprecipitated with anti-GFP antibody resin from crude membranes solubilized with 0.5% digitonin, sporulating cells at hour 4 (IVB+ strain; ΔIVB and ΔsigK strains compared); 4 h at 4°C; SDS-PAGE with silver staining, MS of excised bands, anti-σ^K immunoblot.

On to SpoIVFA (A), for which the binding result is on record as “binds”.
